# Measured values reported in article PMC6389929.
# By UniProt entry, the sequences of proteins in these tests, tags left out.
# UniProt P63208: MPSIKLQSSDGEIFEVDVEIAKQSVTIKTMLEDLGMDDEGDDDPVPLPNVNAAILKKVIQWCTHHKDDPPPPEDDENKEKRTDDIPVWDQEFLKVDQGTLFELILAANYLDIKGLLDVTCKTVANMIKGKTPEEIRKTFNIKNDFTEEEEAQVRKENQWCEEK
# UniProt Q93009: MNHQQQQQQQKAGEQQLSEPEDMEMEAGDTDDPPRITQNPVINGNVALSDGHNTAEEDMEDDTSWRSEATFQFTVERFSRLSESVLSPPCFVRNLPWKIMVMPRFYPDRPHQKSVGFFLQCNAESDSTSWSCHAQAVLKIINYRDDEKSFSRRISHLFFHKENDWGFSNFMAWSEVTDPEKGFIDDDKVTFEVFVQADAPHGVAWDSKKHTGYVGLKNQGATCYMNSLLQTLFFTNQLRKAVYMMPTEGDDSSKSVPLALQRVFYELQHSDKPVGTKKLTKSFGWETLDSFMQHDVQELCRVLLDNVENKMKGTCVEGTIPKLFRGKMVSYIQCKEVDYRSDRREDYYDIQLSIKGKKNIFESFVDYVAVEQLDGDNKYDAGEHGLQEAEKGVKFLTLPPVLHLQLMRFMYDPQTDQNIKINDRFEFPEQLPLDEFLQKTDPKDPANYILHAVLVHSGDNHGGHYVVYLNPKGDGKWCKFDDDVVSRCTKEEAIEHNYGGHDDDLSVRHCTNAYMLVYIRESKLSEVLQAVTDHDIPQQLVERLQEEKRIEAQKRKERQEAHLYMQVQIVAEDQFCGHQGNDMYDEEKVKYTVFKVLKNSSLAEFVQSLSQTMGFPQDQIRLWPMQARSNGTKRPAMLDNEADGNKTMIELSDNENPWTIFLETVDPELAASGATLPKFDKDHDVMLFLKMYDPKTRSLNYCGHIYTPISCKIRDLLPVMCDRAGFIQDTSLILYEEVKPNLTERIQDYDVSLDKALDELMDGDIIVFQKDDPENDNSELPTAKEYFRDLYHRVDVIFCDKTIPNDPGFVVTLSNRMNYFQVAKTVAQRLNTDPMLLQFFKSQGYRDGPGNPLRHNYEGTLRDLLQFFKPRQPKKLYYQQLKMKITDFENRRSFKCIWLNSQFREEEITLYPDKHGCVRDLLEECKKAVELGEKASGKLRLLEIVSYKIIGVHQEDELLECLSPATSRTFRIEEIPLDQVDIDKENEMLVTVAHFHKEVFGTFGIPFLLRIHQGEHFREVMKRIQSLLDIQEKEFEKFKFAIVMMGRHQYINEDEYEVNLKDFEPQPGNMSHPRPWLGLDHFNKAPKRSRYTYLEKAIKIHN
# UniProt P49915: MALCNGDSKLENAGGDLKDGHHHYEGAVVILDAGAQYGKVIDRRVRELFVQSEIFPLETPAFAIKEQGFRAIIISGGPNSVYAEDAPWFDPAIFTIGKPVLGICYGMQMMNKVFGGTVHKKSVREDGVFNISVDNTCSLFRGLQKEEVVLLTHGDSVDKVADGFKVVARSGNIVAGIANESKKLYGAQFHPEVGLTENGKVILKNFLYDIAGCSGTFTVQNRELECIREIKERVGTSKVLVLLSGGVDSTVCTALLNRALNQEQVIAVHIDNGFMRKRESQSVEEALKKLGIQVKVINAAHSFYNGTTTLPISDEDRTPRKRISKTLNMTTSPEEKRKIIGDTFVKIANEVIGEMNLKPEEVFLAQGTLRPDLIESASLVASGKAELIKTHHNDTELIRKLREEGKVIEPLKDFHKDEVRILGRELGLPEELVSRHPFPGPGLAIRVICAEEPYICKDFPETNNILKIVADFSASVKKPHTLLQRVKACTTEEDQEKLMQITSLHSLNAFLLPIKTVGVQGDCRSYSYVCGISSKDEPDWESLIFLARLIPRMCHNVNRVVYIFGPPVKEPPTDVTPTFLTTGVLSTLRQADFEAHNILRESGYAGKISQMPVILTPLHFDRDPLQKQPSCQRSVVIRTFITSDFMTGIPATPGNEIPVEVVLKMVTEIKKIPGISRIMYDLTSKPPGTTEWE
# UniProt P51784: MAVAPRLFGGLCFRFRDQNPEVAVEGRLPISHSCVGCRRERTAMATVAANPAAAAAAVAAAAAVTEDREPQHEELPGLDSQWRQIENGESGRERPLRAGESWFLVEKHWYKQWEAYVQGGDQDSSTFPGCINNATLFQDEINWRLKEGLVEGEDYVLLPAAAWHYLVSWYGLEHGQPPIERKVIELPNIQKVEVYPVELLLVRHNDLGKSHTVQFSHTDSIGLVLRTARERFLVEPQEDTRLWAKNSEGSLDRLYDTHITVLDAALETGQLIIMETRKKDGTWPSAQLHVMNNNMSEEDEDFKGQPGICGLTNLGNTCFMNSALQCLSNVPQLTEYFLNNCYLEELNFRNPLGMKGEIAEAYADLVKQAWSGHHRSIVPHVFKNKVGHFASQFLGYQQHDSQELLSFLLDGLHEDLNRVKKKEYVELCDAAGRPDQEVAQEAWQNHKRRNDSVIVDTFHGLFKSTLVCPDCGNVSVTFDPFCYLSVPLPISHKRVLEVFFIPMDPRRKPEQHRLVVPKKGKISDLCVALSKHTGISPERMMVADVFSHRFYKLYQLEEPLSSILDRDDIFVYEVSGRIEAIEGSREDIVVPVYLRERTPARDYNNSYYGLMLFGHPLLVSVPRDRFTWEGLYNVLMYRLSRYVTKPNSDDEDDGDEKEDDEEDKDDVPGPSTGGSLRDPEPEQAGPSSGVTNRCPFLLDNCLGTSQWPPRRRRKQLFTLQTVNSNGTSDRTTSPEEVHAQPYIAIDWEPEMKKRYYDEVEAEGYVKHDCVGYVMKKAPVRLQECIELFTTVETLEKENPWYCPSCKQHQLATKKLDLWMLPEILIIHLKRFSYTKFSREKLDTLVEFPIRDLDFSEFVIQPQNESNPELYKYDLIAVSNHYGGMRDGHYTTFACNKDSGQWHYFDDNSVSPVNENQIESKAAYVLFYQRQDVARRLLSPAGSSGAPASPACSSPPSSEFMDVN
# T1: FLAGBirA*-tagged FBXO38 (UniProt Q6PIJ6)
# T1 sequence: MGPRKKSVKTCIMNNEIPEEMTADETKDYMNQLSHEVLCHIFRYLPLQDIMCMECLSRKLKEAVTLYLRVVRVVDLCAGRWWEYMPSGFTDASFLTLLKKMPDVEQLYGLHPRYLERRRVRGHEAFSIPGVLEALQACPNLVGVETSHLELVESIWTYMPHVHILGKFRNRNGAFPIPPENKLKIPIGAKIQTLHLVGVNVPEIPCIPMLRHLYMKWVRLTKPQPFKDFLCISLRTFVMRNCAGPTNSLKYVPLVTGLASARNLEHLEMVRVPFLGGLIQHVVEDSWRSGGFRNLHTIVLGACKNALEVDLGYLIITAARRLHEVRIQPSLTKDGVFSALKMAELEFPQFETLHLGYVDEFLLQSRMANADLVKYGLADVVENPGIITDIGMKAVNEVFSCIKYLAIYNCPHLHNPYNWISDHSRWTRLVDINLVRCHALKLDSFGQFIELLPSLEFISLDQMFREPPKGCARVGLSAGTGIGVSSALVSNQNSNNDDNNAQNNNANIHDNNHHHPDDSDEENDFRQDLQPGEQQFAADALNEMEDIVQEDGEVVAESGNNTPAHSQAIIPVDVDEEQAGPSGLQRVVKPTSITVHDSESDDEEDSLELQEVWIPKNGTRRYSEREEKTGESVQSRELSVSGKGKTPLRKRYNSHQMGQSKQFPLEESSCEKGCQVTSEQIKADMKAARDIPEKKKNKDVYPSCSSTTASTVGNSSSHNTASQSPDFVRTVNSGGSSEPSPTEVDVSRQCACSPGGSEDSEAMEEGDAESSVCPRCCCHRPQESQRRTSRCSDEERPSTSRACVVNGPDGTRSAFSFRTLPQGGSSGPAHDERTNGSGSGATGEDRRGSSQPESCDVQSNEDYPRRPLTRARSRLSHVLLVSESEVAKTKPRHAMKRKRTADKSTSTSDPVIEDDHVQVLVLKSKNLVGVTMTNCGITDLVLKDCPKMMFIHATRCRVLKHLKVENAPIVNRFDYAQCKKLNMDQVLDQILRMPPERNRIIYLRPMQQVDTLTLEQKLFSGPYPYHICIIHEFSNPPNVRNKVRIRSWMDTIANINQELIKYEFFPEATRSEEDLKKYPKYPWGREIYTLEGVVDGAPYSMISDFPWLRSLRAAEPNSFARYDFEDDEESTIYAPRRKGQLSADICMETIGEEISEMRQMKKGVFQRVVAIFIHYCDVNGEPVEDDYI
# Target: T1, FLAGBirA*-tagged FBXO38
# Experiment: proximity labelling; BioID: FLAGBirA*-FBXO38 induced with tetracycline in 293 T-REx cells with 50 µM biotin for 24 hrs; Streptavidin Sepharose beads; LC-MS/MS; FLAGBirA* alone as control; BFDR ≤ 0.01
row,binding,Molecule
1,binds,SKP1 (endogenous) (from UniProt P63208 1-163)
2,binds,USP7 (endogenous) (from UniProt Q93009 1-1102) (enzyme)

# Target: FLAG-tagged USP7 (USP7 with C-terminal sequential peptide affinity (SPA) tag) (UniProt Q93009)
# Experiment: affinity purification with mass spectrometry; USP7 with C-terminal SPA tag delivered by adenovirus to AGS cells; high salt extraction, dialysed to 0.1 M potassium acetate; anti-FLAG M2 resin 4 hours at 4 °C; LC-MS/MS; FLAG-β-gal as negative control
row,binding,Molecule
1,binds,GMP synthetase (GMPS) (from UniProt P49915 1-693)
2,binds,deubiquitylating enzyme USP11 (from UniProt P51784 1-963)
3,binds,"Peptidylprolyl Isomerase PPIL4 (protein, UniProt Q8WUA2 1-492) MAVLLETTLGDVVIDLYTEERPRACLNFLKLCKIKYYNYCLIHNVQRDFIIQTGDPTGTGRGGESIFGQLYGDQASFFEAEKVPRIKHKKKGTVSMVNNGSDQHGSQFLITTGENLDYLDGVHTVFGEVTEGMDIIKKINETFVDKDFVPYQDIRINHTVILDDPFDDPPDLLIPDRSPEPTREQLDSGRIGADEEIDDFKGRSAEEVEEIKAEKEAKTQAILLEMVGDLPDADIKPPENVLFVCKLNPVTTDEDLEIIFSRFGPIRSCEVIRDWKTGESLCYAFIEFEKEEDCEKAFFKMDNVLIDDRRIHVDFSQSVAKVKWKGKGGKYTKSDFKEYEKEQDKPPNLVLKDKVKPKQDTKYDLILDEQAEDSKSSHSHTSKKHKKKTHHCSEEKEDEDYMPIKNTNQDIYREMGFGHYEEEESCWEKQKSEKRDRTQNRSRSRSRERDGHYSNSHKSKYQTDLYERERSKKRDRSRSPKKSKDKEKSKYR"
4,binds,"ATM-dependant phosphatase PPM1G (protein, UniProt O15355 1-546) MGAYLSQPNTVKCSGDGVGAPRLPLPYGFSAMQGWRVSMEDAHNCIPELDSETAMFSVYDGHGGEEVALYCAKYLPDIIKDQKAYKEGKLQKALEDAFLAIDAKLTTEEVIKELAQIAGRPTEDEDEKEKVADEDDVDNEEAALLHEEATMTIEELLTRYGQNCHKGPPHSKSGGGTGEEPGSQGLNGEAGPEDSTRETPSQENGPTAKAYTGFSSNSERGTEAGQVGEPGIPTGEAGPSCSSASDKLPRVAKSKFFEDSEDESDEAEEEEEDSEECSEEEDGYSSEEAENEEDEDDTEEAEEDDEEEEEEMMVPGMEGKEEPGSDSGTTAVVALIRGKQLIVANAGDSRCVVSEAGKALDMSYDHKPEDEVELARIKNAGGKVTMDGRVNGGLNLSRAIGDHFYKRNKNLPPEEQMISALPDIKVLTLTDDHEFMVIACDGIWNVMSSQEVVDFIQSKISQRDENGELRLLSSIVEELLDQCLAPDTSGDGTGCDNMTCIIICFKPRNTAELQPESGKRKLEEVLSTEGAEENGNSDKKKKAKRD"
5,binds,"DHX40 (protein, UniProt Q8IX18 1-779) MSRFPAVAGRAPRRQEEGERSRDLQEERLSAVCIADREEKGCTSQEGGTTPTFPIQKQRKKIIQAVRDNSFLIVTGNTGSGKTTQLPKYLYEAGFSQHGMIGVTQPRKVAAISVAQRVAEEMKCTLGSKVGYQVRFDDCSSKETAIKYMTDGCLLKHILGDPNLTKFSVIILDEAHERTLTTDILFGLLKKLFQEKSPNRKEHLKVVVMSATMELAKLSAFFGNCPIFDIPGRLYPVREKFCNLIGPRDRENTAYIQAIVKVTMDIHLNEMAGDILVFLTGQFEIEKSCELLFQMAESVDYDYDVQDTTLDGLLILPCYGSMTTDQQRRIFLPPPPGIRKCVISTNISATSLTIDGIRYVVDGGFVKQLNHNPRLGLDILEVVPISKSEALQRSGRAGRTSSGKCFRIYSKDFWNQCMPDHVIPEIKRTSLTSVVLTLKCLAIHDVIRFPYLDPPNERLILEALKQLYQCDAIDRSGHVTRLGLSMVEFPLPPHLTCAVIKAASLDCEDLLLPIAAMLSVENVFIRPVDPEYQKEAEQRHRELAAKAGGFNDFATLAVIFEQCKSSGAPASWCQKHWIHWRCLFSAFRVEAQLRELIRKLKQQSDFPKETFEGPKHEVLRRCLCAGYFKNVARRSVGRTFCTMDGRGSPVHIHPSSALHEQETKLEWIIFHEVLVTTKVYARIVCPIRYEWVRDLLPKLHEFNAHDLSSVARREVREDARRRWTNKENVKQLKDGISKDVLKKMQRRNDDKSISDARARFLERKQQRTQDHSDTRKETG"
6,binds,"F-box protein FBXO38 (endogenous) (protein, UniProt Q6PIJ6 1-1188) MGPRKKSVKTCIMNNEIPEEMTADETKDYMNQLSHEVLCHIFRYLPLQDIMCMECLSRKLKEAVTLYLRVVRVVDLCAGRWWEYMPSGFTDASFLTLLKKMPDVEQLYGLHPRYLERRRVRGHEAFSIPGVLEALQACPNLVGVETSHLELVESIWTYMPHVHILGKFRNRNGAFPIPPENKLKIPIGAKIQTLHLVGVNVPEIPCIPMLRHLYMKWVRLTKPQPFKDFLCISLRTFVMRNCAGPTNSLKYVPLVTGLASARNLEHLEMVRVPFLGGLIQHVVEDSWRSGGFRNLHTIVLGACKNALEVDLGYLIITAARRLHEVRIQPSLTKDGVFSALKMAELEFPQFETLHLGYVDEFLLQSRMANADLVKYGLADVVENPGIITDIGMKAVNEVFSCIKYLAIYNCPHLHNPYNWISDHSRWTRLVDINLVRCHALKLDSFGQFIELLPSLEFISLDQMFREPPKGCARVGLSAGTGIGVSSALVSNQNSNNDDNNAQNNNANIHDNNHHHPDDSDEENDFRQDLQPGEQQFAADALNEMEDIVQEDGEVVAESGNNTPAHSQAIIPVDVDEEQAGPSGLQRVVKPTSITVHDSESDDEEDSLELQEVWIPKNGTRRYSEREEKTGESVQSRELSVSGKGKTPLRKRYNSHQMGQSKQFPLEESSCEKGCQVTSEQIKADMKAARDIPEKKKNKDVYPSCSSTTASTVGNSSSHNTASQSPDFVRTVNSGGSSEPSPTEVDVSRQCACSPGGSEDSEAMEEGDAESSVCPRCCCHRPQESQRRTSRCSDEERPSTSRACVVNGPDGTRSAFSFRTLPQGGSSGPAHDERTNGSGSGATGEDRRGSSQPESCDVQSNEDYPRRPLTRARSRLSHVLLVSESEVAKTKPRHAMKRKRTADKSTSTSDPVIEDDHVQVLVLKSKNLVGVTMTNCGITDLVLKDCPKMMFIHATRCRVLKHLKVENAPIVNRFDYAQCKKLNMDQVLDQILRMPPERNRIIYLRPMQQVDTLTLEQKLFSGPYPYHICIIHEFSNPPNVRNKVRIRSWMDTIANINQELIKYEFFPEATRSEEDLKKYPKYPWGREIYTLEGVVDGAPYSMISDFPWLRSLRAAEPNSFARYDFEDDEESTIYAPRRKGQLSADICMETIGEEISEMRQMKKGVFQRVVAIFIHYCDVNGEPVEDDYI"
7,binds,"DEAD-box helicase DDX24 (protein, UniProt Q9GZR7 1-859) MKLKDTKSRPKQSSCGKFQTKGIKVVGKWKEVKIDPNMFADGQMDDLVCFEELTDYQLVSPAKNPSSLFSKEAPKRKAQAVSEEEEEEEGKSSSPKKKIKLKKSKNVATEGTSTQKEFEVKDPELEAQGDDMVCDDPEAGEMTSENLVQTAPKKKKNKGKKGLEPSQSTAAKVPKKAKTWIPEVHDQKADVSAWKDLFVPRPVLRALSFLGFSAPTPIQALTLAPAIRDKLDILGAAETGSGKTLAFAIPMIHAVLQWQKRNAAPPPSNTEAPPGETRTEAGAETRSPGKAEAESDALPDDTVIESEALPSDIAAEARAKTGGTVSDQALLFGDDDAGEGPSSLIREKPVPKQNENEEENLDKEQTGNLKQELDDKSATCKAYPKRPLLGLVLTPTRELAVQVKQHIDAVARFTGIKTAILVGGMSTQKQQRMLNRRPEIVVATPGRLWELIKEKHYHLRNLRQLRCLVVDEADRMVEKGHFAELSQLLEMLNDSQYNPKRQTLVFSATLTLVHQAPARILHKKHTKKMDKTAKLDLLMQKIGMRGKPKVIDLTRNEATVETLTETKIHCETDEKDFYLYYFLMQYPGRSLVFANSISCIKRLSGLLKVLDIMPLTLHACMHQKQRLRNLEQFARLEDCVLLATDVAARGLDIPKVQHVIHYQVPRTSEIYVHRSGRTARATNEGLSLMLIGPEDVINFKKIYKTLKKDEDIPLFPVQTKYMDVVKERIRLARQIEKSEYRNFQACLHNSWIEQAAAALEIELEEDMYKGGKADQQEERRRQKQMKVLKKELRHLLSQPLFTESQKTKYPTQSGKPPLLVSAPSKSESALSCLSKQKKKKTKKPKEPQPEQPQPSTSAN"
8,binds,"Lamina-associated polypeptide TMPO (protein, UniProt P42166 1-694) MPEFLEDPSVLTKDKLKSELVANNVTLPAGEQRKDVYVQLYLQHLTARNRPPLPAGTNSKGPPDFSSDEEREPTPVLGSGAAAAGRSRAAVGRKATKKTDKPRQEDKDDLDVTELTNEDLLDQLVKYGVNPGPIVGTTRKLYEKKLLKLREQGTESRSSTPLPTISSSAENTRQNGSNDSDRYSDNEEGKKKEHKKVKSTRDIVPFSELGTTPSGGGFFQGISFPEISTRPPLGSTELQAAKKVHTSKGDLPREPLVATNLPGRGQLQKLASERNLFISCKSSHDRCLEKSSSSSSQPEHSAMLVSTAASPSLIKETTTGYYKDIVENICGREKSGIQPLCPERSHISDQSPLSSKRKALEESESSQLISPPLAQAIRDYVNSLLVQGGVGSLPGTSNSMPPLDVENIQKRIDQSKFQETEFLSPPRKVPRLSEKSVEERDSGSFVAFQNIPGSELMSSFAKTVVSHSLTTLGLEVAKQSQHDKIDASELSFPFHESILKVIEEEWQQVDRQLPSLACKYPVSSREATQILSVPKVDDEILGFISEATPLGGIQAASTESCNQQLDLALCRAYEAAASALQIATHTAFVAKAMQADISQAAQILSSDPSRTHQALGILSKTYDAASYICEAAFDEVKMAAHTMGNATVGRRYLWLKDCKINLASKNKLASTPFKGGTLFGGEVCKVIKKRGNKH"

# These are yes or no findings as the source states them, for the method shown. In cells and extracts the contact can be indirect. Here binding means that the protein was enriched with, or labelled near, the bait; the list need not be complete. For some of these results: Tags and fused reporters may be left off the sequences shown.
